Experimental data: paper PMC11937338
No constants are given. Whether binding was seen depends on the method and setting. In cells and extracts the contact can be indirect. Some results given as binding are weak or reduced against the parent protein; the word gives no strength.

Sequences of proteins named here, by UniProt entry; tags and fusion partners are left off.
UniProt Q9WTX6: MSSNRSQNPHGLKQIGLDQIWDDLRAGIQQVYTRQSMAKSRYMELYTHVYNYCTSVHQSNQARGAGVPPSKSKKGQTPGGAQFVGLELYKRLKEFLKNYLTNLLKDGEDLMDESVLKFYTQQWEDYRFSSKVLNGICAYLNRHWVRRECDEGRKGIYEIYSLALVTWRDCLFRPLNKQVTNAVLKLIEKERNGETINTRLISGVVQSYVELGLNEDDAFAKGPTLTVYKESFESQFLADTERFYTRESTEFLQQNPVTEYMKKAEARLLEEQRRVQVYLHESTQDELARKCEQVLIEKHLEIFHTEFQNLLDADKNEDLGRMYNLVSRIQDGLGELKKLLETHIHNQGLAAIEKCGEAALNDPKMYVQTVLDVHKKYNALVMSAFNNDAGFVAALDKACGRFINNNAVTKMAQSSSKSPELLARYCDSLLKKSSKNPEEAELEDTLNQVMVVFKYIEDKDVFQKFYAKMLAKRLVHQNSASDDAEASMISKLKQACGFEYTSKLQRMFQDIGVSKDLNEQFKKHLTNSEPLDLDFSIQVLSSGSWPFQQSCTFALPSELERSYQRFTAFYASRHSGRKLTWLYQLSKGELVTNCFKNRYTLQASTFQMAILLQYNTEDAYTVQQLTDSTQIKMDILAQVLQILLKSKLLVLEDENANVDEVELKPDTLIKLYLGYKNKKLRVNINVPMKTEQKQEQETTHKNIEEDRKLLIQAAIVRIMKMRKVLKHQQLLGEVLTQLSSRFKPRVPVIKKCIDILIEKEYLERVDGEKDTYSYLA
UniProt P11440: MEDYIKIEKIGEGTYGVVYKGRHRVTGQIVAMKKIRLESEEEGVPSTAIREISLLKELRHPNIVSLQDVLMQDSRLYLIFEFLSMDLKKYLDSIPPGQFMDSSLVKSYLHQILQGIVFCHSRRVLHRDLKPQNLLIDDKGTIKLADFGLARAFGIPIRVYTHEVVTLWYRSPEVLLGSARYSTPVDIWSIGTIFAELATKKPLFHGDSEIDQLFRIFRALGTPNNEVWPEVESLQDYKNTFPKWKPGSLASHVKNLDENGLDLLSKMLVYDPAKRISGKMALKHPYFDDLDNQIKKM
UniProt Q9Z0Z3: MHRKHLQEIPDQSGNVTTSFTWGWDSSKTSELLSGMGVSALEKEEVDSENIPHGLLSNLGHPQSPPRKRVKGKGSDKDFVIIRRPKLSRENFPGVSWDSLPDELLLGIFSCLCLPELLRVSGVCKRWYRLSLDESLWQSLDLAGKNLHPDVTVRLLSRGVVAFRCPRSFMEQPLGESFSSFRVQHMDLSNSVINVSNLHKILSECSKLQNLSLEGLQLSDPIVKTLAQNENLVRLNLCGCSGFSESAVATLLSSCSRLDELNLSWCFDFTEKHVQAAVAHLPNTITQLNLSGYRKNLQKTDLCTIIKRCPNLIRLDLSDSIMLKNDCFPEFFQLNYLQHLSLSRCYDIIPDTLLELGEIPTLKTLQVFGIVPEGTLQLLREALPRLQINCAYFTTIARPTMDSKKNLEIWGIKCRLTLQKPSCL

target: T1, Coactivator-associated arginine methyltransferase 1 (mouse (endogenous in 10T1/2 and MEF)) (UniProt Q9WVG6); assay: co-IP; IP with anti-CARM1 antibody from 10T1/2 cell lysate (RIPA buffer), protein A/G Sepharose, western blot
T1 sequence: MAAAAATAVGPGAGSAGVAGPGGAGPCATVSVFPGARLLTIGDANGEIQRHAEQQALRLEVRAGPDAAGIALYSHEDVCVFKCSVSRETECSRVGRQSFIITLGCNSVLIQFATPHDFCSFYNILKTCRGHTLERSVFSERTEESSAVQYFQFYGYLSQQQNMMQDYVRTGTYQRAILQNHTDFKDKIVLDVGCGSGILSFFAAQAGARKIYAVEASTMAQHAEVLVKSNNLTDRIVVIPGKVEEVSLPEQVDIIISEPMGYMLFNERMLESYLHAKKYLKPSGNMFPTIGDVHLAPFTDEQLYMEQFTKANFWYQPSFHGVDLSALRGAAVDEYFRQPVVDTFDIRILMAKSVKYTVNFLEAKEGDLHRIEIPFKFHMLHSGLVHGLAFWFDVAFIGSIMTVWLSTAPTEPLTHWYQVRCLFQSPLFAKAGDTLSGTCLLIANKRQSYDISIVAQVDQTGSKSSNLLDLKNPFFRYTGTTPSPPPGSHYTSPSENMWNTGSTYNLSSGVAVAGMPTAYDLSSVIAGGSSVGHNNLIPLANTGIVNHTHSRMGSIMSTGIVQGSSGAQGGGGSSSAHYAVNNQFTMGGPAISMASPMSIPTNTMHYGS

binding, binds:
Cullin-1 (from UniProt Q9WTX6 1-776)
Cyclin-dependent kinase 1 (from UniProt P11440 1-297)
S-phase kinase-associated protein 2 (from UniProt Q9Z0Z3 1-424)
